The experiment addresses myc-tagged SOCS3 (UniProt O35718). The experiment can be described thus: co-IP; lysate (RIPA lysis buffer with protease and phosphatase inhibitors) of MC3T3/E1 cells stably overexpressing myc-tagged SOCS3; immunoprecipitated overnight at 4°C with anti-myc antibody; precipitates blotted for Smad1 and SOCS3.

Chains of the proteins cited; added tags and fusions are not shown.
UniProt O35718: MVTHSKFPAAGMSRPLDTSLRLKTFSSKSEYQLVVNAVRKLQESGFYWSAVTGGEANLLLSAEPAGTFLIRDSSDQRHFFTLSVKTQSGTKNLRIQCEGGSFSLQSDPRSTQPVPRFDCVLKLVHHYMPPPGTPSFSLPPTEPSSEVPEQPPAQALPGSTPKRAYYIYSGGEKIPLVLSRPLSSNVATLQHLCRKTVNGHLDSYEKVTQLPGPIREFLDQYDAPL
UniProt P70340: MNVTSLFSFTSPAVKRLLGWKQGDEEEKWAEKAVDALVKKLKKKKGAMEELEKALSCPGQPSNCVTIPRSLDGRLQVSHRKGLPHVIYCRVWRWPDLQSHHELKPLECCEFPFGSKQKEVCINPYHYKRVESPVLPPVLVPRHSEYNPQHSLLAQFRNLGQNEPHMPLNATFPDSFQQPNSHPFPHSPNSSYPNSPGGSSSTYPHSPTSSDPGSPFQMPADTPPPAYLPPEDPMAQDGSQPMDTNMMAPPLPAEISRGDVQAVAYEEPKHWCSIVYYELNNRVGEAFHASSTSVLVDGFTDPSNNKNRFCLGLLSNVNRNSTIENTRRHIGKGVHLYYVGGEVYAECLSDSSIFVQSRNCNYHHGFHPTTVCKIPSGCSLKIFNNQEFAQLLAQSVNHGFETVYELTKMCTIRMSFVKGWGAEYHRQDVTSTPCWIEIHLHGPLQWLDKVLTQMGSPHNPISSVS

Results on 1 substance are retold here after paper PMC6246747.

These are yes or no findings as the source states them, for the method shown. In cells and extracts the contact can be indirect. Some entries that bind do so weakly or less than the wild type.

Smad1 (from UniProt P70340 1-465): the binding result is “binds”.
